From paper PMC8954350, “Non-Canonical Cannabinoid Receptors with Distinct Binding and Signaling Properties in Prostate and Other Cancer Cell Types Mediate Cell Death” (International Journal of Molecular Sciences, 2022)
Values joined by “and” are separate entries in the source; they are usually repeats but may differ in a detail not shown here. Equal entries are not always repeated.

Legend:
[1] = tested on: CBRs expressed in DU-145 membranes; format: binding, human
Method: (§1) The assay was conducted as previously detailed. […] All binding reactions were conducted in triplicate, in a final volume of 1 mL, and, following mixing, were incubated for 20 min in a 37 °C water bath to achieve equilibrium. After incubation, reactions were terminated by rapid vacuum filtration through Whatman GF/B glass fiber filters (Brandel; Gaithersburg, MD, USA), followed by three washes of 4 mls of ice-cold filtration buffer (50 mM Tris, pH 7.4, and 0.05% bovine serum albumin). Samples were punched out from filter papers into scintillation vials, to which 4 mls of ScintiverseTM-BDR cocktail scintillation fluid (Fisher Scientific; Hampton, NH, USA) was added. Filters were incubated at room temperature for 24 h in scintillation fluid, vortexed, and radioactivity (measured as DPMs) was quantified via a liquid scintillation spectrophotometer (Tri Carb 2100 TR Liquid Scintillation Analyzer, Packard Instruments, Meriden, CT, USA).
(§2) These experiments were conducted to screen well-characterized cannabinoid ligands with high affinity for canonical CB1 and/or CB2Rs for binding to CBRs expressed in prostate cancer cells lines, as detailed in [33]. […] After incubation, reactions were terminated by rapid vacuum filtration and processed for radioactivity, as detailed in Section 4.5.1.

[2] = tested on: CBRs expressed in PC-3 membranes; test: [^3H]WIN-55,212-2 competitive binding screen, PC-3 membranes; set-up: species or system human; settings: 1 μM ligand, 1 nM radioligand
Method: as §1, §2

[3] = target: CBRs expressed in PC-3 membranes; format: binding, human
Method: (§3) The assay was performed as previously detailed. […] All binding reactions were conducted in triplicate, in a final volume of 1 mL, and, following mixing, were incubated for 20 min in a 37 °C water bath to achieve equilibrium. After incubation, reactions were terminated by rapid vacuum filtration and processed for radioactivity, as detailed in Section 4.5.1.
(§4) Curve-fitting and all statistical analyses were performed using GraphPad Prism® v8.0g (GraphPad Software, Inc.; San Diego, CA, USA). […] For CBR screening studies, a one-sample t-test was performed to determine differences from 100% (e.g., to quantify compounds producing displacement), followed by a one-way ANOVA and Tukey’s post hoc tests to compare displacement produced by all drugs. […] To compare specific CBR affinity (Ki) between ligands, non-linear regression analysis was employed to determine experimental IC50 values from competition receptor binding assays, which were then converted to Ki values using the Cheng–Prusoff equation [35]. […] For LDH release, ATP-dependent cell viability and JC-1 staining assays, drug effects were first analyzed by a one-sample t-test to determine differences from 0 or 100% (vehicle), followed by a one-way ANOVA and Dunnett’s post hoc test to compare all means. […]

[4] = target: CBRs expressed in DU-145 membranes; format: binding, human; remark: listed apart in the source
Method: as §3, §4

DU-145 cells = test: LDH cytotoxicity, DU-145 cells; format: cell-based, human; settings: 24 h
Method: DU-145 cytotoxicity (cell death) was assessed as previously described using the LDH-Cytotoxicity Colorimetric Assay Kit II (BioVision Research Products; Milpitas, CA USA, #K313) to quantify lactate dehydrogenase (LDH) release from damaged or dying cells. DU-145 cells were seeded at a density of 130 × 10^3 cells/well in 6-well plates and maintained in an incubator at 37 °C with 5% CO2 for 24 h. […] Treated cells were incubated for an additional 24 h, followed by quantification of LDH release. LDH released from damaged or dying cells oxidizes lactate to produce NADH which then reacts with a water-soluble tetrazolium salt (WST) reagent to produce a yellow-colored product. The intensity of the yellow-colored product was detected with an OD reading at 450 nm (quantified by a BioTek microplate reader interfaced with SoftMax Pro 5.4.5 software; Winooski, VT, USA) and was directly proportional to the amount of LDH released. Percent cytotoxicity was calculated according to the manufacturer’s protocol as the following: % Cytotoxicity=OD450 Supernatant/Supernatant+Lysate

Cc1c(C(=O)NN2CCCCC2)nn(-c2ccc(Cl)cc2Cl)c1-c1ccc(I)cc1 [AM-251]
displacement of [^3H]WIN-55,212-2 [1]: greater than 50%
displacement of [^3H]WIN-55,212-2 [2]: greater than 50%
Ki [3]: ≤ 100 nM and 58.7 nM
Ki [4]: ≤ 100 nM and 69.5 nM
LDH release (DU-145 cells; 10 μM): neither low (10 μM) nor high (50 μM) concentrations of WIN-55,212-2, AM-251 or AM-630 altered LDH release
increase in LDH release (DU-145 cells; 50 μM): neither low (10 μM) nor high (50 μM) concentrations of WIN-55,212-2, AM-251 or AM-630 altered LDH release
attenuation of GW-405833 (50 μM)-induced LDH release (DU-145 cells; co-incubation with 10 μM ligand): almost completely blocked GW-405833 induced LDH release
